The supplement of paper PMC4604168 (melanoma cell lines)
This is one part of the list. Single values are uncertain, as repeats are few or missing.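 Imaging used 1,536-well plates; nuclei positive for cleaved PARP by antibody were divided by total DNA-stained nuclei to yield the apoptosis fraction. Doses for screening kept most cells viable, and cell lines differ markedly in resting and induced cleaved-PARP levels.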

These compounds were tested on IPC-298 (assay: cleaved PARP positive nuclei fraction relative to DMSO control; melanoma cells; higher = more apoptosis). Details: library dose: low library concentration; 72 h.
For `O=C(Nc1cccc(Cl)c1)Nc1ncc(CCNc2ncnc3ccsc23)s1` + COc1cc(N2CCC(N3CCN(C)CC3)CC2)ccc1Nc1ncc(Cl)c(Nc2ccccc2S(=O)(=O)C(C)C)n1 [NVP-TAE684] (first compound 0.0008 µM, partner dose 0.08 µM), the “cleaved PARP positive nuclei fraction” value was 28.3%. With `C[C@]1(c2nc3c(C(N)=O)cccc3[nH]2)CCCN1` [Veliparib] + O=S(=O)(c1ccccc1)N(CC(F)(F)F)c1ccc(C(O)(C(F)(F)F)C(F)(F)F)cc1 [T0901317] (first compound 1.4 µM, partner dose 1.4 µM) the “cleaved PARP positive nuclei fraction” value was 62.2%. With `Cc1nc(Nc2ncc(C(=O)Nc3c(C)cccc3Cl)s2)cc(N2CCN(CCO)CC2)n1` [dasatanib] + CCc1ccc(CCOc2ccc(CC3SC(=O)NC3=O)cc2)nc1 [pioglitazone] (first compound 0.004 µM, partner dose 2 µM) the “cleaved PARP positive nuclei fraction” value was 43.9%. For `CC1(C)NC(=O)N(c2ccc([N+](=O)[O-])c(C(F)(F)F)c2)C1=O` [nilutamide] + O=c1cc(-c2cccc3c2Sc2ccccc2S3)oc(N2CCOCC2)c1 [KU55933] (first compound 1 µM, partner dose 1 µM), the “cleaved PARP positive nuclei fraction” value was 26.2%. For `COc1cc(Nc2ncc(F)c(Nc3ccc4c(n3)NC(=O)C(C)(C)O4)n2)cc(OC)c1OC` [Tamatinib] + Oc1nc(-c2ccc(C(F)(F)F)cc2)nc2c1CSCC2 [XAV939] (first compound 0.4 µM, partner dose 2 µM), the “cleaved PARP positive nuclei fraction” value was 76.3%. For `O=C(CCCCCCC(=O)Nc1ccccc1)NO` [vorinostat] + O=C(O)C(=O)Nc1sc2c(c1C(=O)O)CCNC2 [TCS401] (first compound 0.08 µM, partner dose 1.66667 µM), the “cleaved PARP positive nuclei fraction” value was 126%.

What follows are compounds tested on IST-MEL1 in the same assay as above. Details: library dose: low library concentration; 72 h.
In the case of `O=C(CCCCCCC(=O)Nc1ccccc1)NO` [vorinostat] + COc1ccc2c(c1)CCC1C2CCC2(C)C(NCCCCCCN3C(=O)C=CC3=O)CCC12 [U73122] (first compound 0.08 µM, partner dose 0.4 µM), the “cleaved PARP positive nuclei fraction” value is reported as 136%. With `Cn1nnc2c(C(N)=O)ncn2c1=O` [temozolomide] + COc1ccc(COc2ccc(Cc3cnc(N)nc3N)cc2OC)cc1 [GW2580] (first compound 2 µM, partner dose 1 µM) the “cleaved PARP positive nuclei fraction” value was 139%. With `OCCn1cc(-c2cnc3nnn(Cc4ccc5ncccc5c4)c3n2)cn1` + COc1ccc(-c2ccc3c(N4CCOCC4)nc(N4C[C@@H](C)O[C@@H](C)C4)nc3n2)cc1CO [KU0063794] (first compound 1 µM, partner dose 0.02 µM) the “cleaved PARP positive nuclei fraction” value was 43.3%. `Cc1ccc(NC(=O)c2cccc(N(C)C)c2)cc1NC(=O)c1ccc(O)cc1` + Cn1cc(/C=C2\C(=O)Nc3cccnc32)c2ccccc21 [GW441756] (first compound 2 µM, partner dose 0.4 µM) was tested, and the “cleaved PARP positive nuclei fraction” value was 43.7%. In the case of `Cc1ccc(NC(=O)c2cccc(N(C)C)c2)cc1NC(=O)c1ccc(O)cc1` + CCCCCCCCCCCC1=C(O)C(=O)C=C(O)C1=O [Embelin] (first compound 2 µM, partner dose 1.2 µM), the “cleaved PARP positive nuclei fraction” value is reported as 108%. In the case of `Cn1cncc1[C@@](N)(c1ccc(Cl)cc1)c1ccc2c(c1)c(-c1cccc(Cl)c1)cc(=O)n2C` [tipifarnib] + Cc1cc([N+](=O)[O-])ccc1NS(=O)(=O)c1cc(Cl)ccc1Cl [FH535] (first compound 0.01 µM, partner dose 1 µM), the “cleaved PARP positive nuclei fraction” value is reported as 128%. In the case of `Cn1c(Nc2ccc(C(F)(F)F)cc2)nc2cc(Oc3ccnc(-c4ncc(C(F)(F)F)[nH]4)c3)ccc21` + COc1ccc2c(c1)CCC1C2CCC2(C)C(NCCCCCCN3C(=O)C=CC3=O)CCC12 [U73122] (first compound 0.08 µM, partner dose 0.4 µM), the “cleaved PARP positive nuclei fraction” value is reported as 236%. `Cn1cncc1[C@@](N)(c1ccc(Cl)cc1)c1ccc2c(c1)c(-c1cccc(Cl)c1)cc(=O)n2C` [tipifarnib] + Oc1cc(-c2nc(-c3ccccc3)[nH]c2-c2ccncc2)ccc1Cl [L779450] (first compound 0.01 µM, partner dose 0.2 µM) was tested, and the “cleaved PARP positive nuclei fraction” value was 90.7%. For `OCCn1cc(-c2cnc3nnn(Cc4ccc5ncccc5c4)c3n2)cn1` + O=C(O)C(=O)Nc1sc2c(c1C(=O)O)CCNC2 [TCS401] (first compound 1 µM, partner dose 1.66667 µM), the “cleaved PARP positive nuclei fraction” value was 85.1%. In the case of `C=CCn1c(=O)c2cnc(Nc3ccc(N4CCN(C)CC4)cc3)nc2n1-c1cccc(C(C)(C)O)n1` + Oc1nc(-c2ccc(C(F)(F)F)cc2)nc2c1CSCC2 [XAV939] (first compound 0.02 µM, partner dose 2 µM), the “cleaved PARP positive nuclei fraction” value is reported as 41.3%. With `Nc1cccc2c1CN(C1CCC(=O)NC1=O)C2=O` (stereo not drawn) [lenalidomide] + CCCCCCCCCCCC1=C(O)C(=O)C=C(O)C1=O [Embelin] (first compound 1 µM, partner dose 1.2 µM) the “cleaved PARP positive nuclei fraction” value was 41.1%. With `C[C@@H]1CCN(C(=O)CC#N)C[C@@H]1N(C)c1ncnc2[nH]ccc12` + Oc1cc(-c2nc(-c3ccccc3)[nH]c2-c2ccncc2)ccc1Cl [L779450] (first compound 1 µM, partner dose 0.2 µM) the “cleaved PARP positive nuclei fraction” value was 45.8%. In the case of `Cc1cc(N2CCOCC2)cc2[nH]c(-c3c(NC[C@@H](O)c4cccc(Cl)c4)cc[nH]c3=O)nc12` + Cc1cc([N+](=O)[O-])ccc1NS(=O)(=O)c1cc(Cl)ccc1Cl [FH535] (first compound 0.2 µM, partner dose 1 µM), the “cleaved PARP positive nuclei fraction” value is reported as 151%. In the case of `C=CCn1c(=O)c2cnc(Nc3ccc(N4CCN(C)CC4)cc3)nc2n1-c1cccc(C(C)(C)O)n1` + O=C1NC(=O)/C(=C/c2ccc(-c3ccc(F)cc3O)o2)S1 [AS252424] (first compound 0.02 µM, partner dose 1 µM), the “cleaved PARP positive nuclei fraction” value is reported as 59.7%. `Cc1ccc(NC(=O)c2cccc(N(C)C)c2)cc1NC(=O)c1ccc(O)cc1` + N#Cc1c(O)c2c(-c3ccc(-c4ccccc4O)cc3)csc2[nH]c1=O [A769662] (first compound 2 µM, partner dose 2 µM) was tested, and the “cleaved PARP positive nuclei fraction” value was 141%. With `Cn1cncc1[C@@](N)(c1ccc(Cl)cc1)c1ccc2c(c1)c(-c1cccc(Cl)c1)cc(=O)n2C` [tipifarnib] + CCN(CC)CCCCNc1ncc2cc(-c3cc(OC)cc(OC)c3)c(NC(=O)NC(C)(C)C)nc2n1 [PD173074] (first compound 0.01 µM, partner dose 0.1 µM) the “cleaved PARP positive nuclei fraction” value was 46.4%. For `O=C(CCCCCCC(=O)Nc1ccccc1)NO` [vorinostat] + CCCCCCCCCCCC1=C(O)C(=O)C=C(O)C1=O [Embelin] (first compound 0.08 µM, partner dose 1.2 µM), the “cleaved PARP positive nuclei fraction” value was 89.9%. In the case of `Cn1nnc2c(C(N)=O)ncn2c1=O` [temozolomide] + Cn1cc(/C=C2\C(=O)Nc3cccnc32)c2ccccc21 [GW441756] (first compound 2 µM, partner dose 0.4 µM), the “cleaved PARP positive nuclei fraction” value is reported as 60%. `Nc1cccc2c1CN(C1CCC(=O)NC1=O)C2=O` (stereo not drawn) [lenalidomide] + COc1cc2ncnc(Nc3ccc(Oc4ccccc4)cc3)c2cc1OC [SrcI1] (first compound 1 µM, partner dose 2 µM) was tested, and the “cleaved PARP positive nuclei fraction” value was 35.4%. With `COc1cc(Nc2ncc(F)c(Nc3ccc4c(n3)NC(=O)C(C)(C)O4)n2)cc(OC)c1OC` [Tamatinib] + CCc1ccc(CCOc2ccc(CC3SC(=O)NC3=O)cc2)nc1 [pioglitazone] (first compound 0.4 µM, partner dose 2 µM) the “cleaved PARP positive nuclei fraction” value was 95.3%. With `Cc1nc(Nc2ncc(C(=O)Nc3c(C)cccc3Cl)s2)cc(N2CCN(CCO)CC2)n1` [dasatanib] + COc1cc(N2CCC(N3CCN(C)CC3)CC2)ccc1Nc1ncc(Cl)c(Nc2ccccc2S(=O)(=O)C(C)C)n1 [NVP-TAE684] (first compound 0.004 µM, partner dose 0.08 µM) the “cleaved PARP positive nuclei fraction” value was 107%. For `Cn1c(Nc2ccc(C(F)(F)F)cc2)nc2cc(Oc3ccnc(-c4ncc(C(F)(F)F)[nH]4)c3)ccc21` + Cc1cc([N+](=O)[O-])ccc1NS(=O)(=O)c1cc(Cl)ccc1Cl [FH535] (first compound 0.08 µM, partner dose 1 µM), the “cleaved PARP positive nuclei fraction” value was 113%. `O=C(CCCCCCC(=O)Nc1ccccc1)NO` [vorinostat] + O=S(=O)(c1ccccc1)N(CC(F)(F)F)c1ccc(C(O)(C(F)(F)F)C(F)(F)F)cc1 [T0901317] (first compound 0.08 µM, partner dose 1.4 µM) was tested, and the “cleaved PARP positive nuclei fraction” value was 127%. For `CC(C)(C)c1cnc(CSc2cnc(NC(=O)C3CCNCC3)s2)o1` + CCc1ccc(CCOc2ccc(CC3SC(=O)NC3=O)cc2)nc1 [pioglitazone] (first compound 0.01 µM, partner dose 2 µM), the “cleaved PARP positive nuclei fraction” value was 64%. With `COc1cc(Nc2ncc(F)c(Nc3ccc4c(n3)NC(=O)C(C)(C)O4)n2)cc(OC)c1OC` [Tamatinib] + Cn1cc(/C=C2\C(=O)Nc3cccnc32)c2ccccc21 [GW441756] (first compound 0.4 µM, partner dose 0.4 µM) the “cleaved PARP positive nuclei fraction” value was 172%. In the case of `C#Cc1cccc(Nc2ncnc3cc(OCCOC)c(OCCOC)cc23)c1` [erlotinib] + N#Cc1c(O)c2c(-c3ccc(-c4ccccc4O)cc3)csc2[nH]c1=O [A769662] (first compound 0.8 µM, partner dose 2 µM), the “cleaved PARP positive nuclei fraction” value is reported as 70.2%. With `OCCn1cc(-c2cnc3nnn(Cc4ccc5ncccc5c4)c3n2)cn1` + COc1cc(N2CCC(N3CCN(C)CC3)CC2)ccc1Nc1ncc(Cl)c(Nc2ccccc2S(=O)(=O)C(C)C)n1 [NVP-TAE684] (first compound 1 µM, partner dose 0.08 µM) the “cleaved PARP positive nuclei fraction” value was 89.7%.
